# Experimental data as given in patent publication US5654451A, “Amino acids and peptides having modified C-terminals and modified N-terminals” (Magainin Pharmaceuticals Inc., priority 1995, dated 1997).
# Not every detail of the peptide structures is certain; ends, links or a residue may be inferred.
# What was measured:
# C. albicans = test: Antimicrobial assay (MIC, microtiter broth dilution); type: cell-based; details: Table VI
# Method: (§1) The procedure for the antimicrobial assay is based upon the guidelines of the National Committee for Clinical Laboratory Standards, Document M7-T2, Volume 8, No. 8, 1988.
# (§2) 1-5×10^5 CFUs/ml of either S. aureus ATCC 25923, E. coli ATCC 25922, P. aeruginosa ATCC 27853, or C. albicans were added to the wells in full strength Mueller Hinton broth (BBL 11443) from a mid-log culture. The inoculum is standardized spectrophotometrically at 600 nm and is verified by colony counts. The plates are incubated for 16-20 hours at 37° C., and the minimal inhibitory concentrations (MIC) for the compounds are determined. Minimal inhibitory concentration is defined as the lowest concentration of amino acid or peptide which produces a clear well in the microtiter plate.
# S. aureus = test: as above; type: cell-based; details: Table VI
# Method: as §1, §2
structure (smiles),measurement,setting,value
"N=C(N)NCCC[C@H](N)C(=O)N[C@@H](Cc1ccc(O)cc1)C(=O)NCCCCCCCCCCCCNC(=O)[C@H](Cc1ccc(O)cc1)NC(=O)[C@@H](N)CCCNC(=N)N [Compound 60, 1,12-[Di-(ArgTyr)] diaminododecane]",MIC Candida,C. albicans,64 µg/mL
same,MIC Staph,S. aureus,64 µg/mL
